# Values joined by “and” are separate entries in the source; they are usually repeats but may differ in a detail not shown here. Equal entries are not always repeated. Structures can show the parent of a compound that is named as a salt. ± gives the standard deviation of the averaged measurements. Some of the results follow. Plates or batches differ in their baseline, so values are only roughly comparable.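 Primary human stellate myofibroblasts activated in culture; inactivation shown by regained lipid droplets. Readout: fraction of Hoechst-counted cells exceeding a per-plate Bodipy threshold, duplicate wells, each plate with DMSO negative and nortriptyline positive controls. Hits: control-normalized score beyond the plate's top-tenth-percentile nortriptyline wells, or among its three best wells. Final well concentrations unstated.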
# Tested on: primary human hepatic stellate cells (donor 1)
# Experiment: percent Bodipy-positive cells; higher = more lipid droplet accumulation
# Conditions: 48 h
# [1] = library stock concentration: 1 mM
# [2] = library stock concentration: 10 mM
# [3] = library stock concentration: 3.33 mM
smiles,measurement,setting,value
O=C(Cc1ccccc1Nc1c(Cl)cccc1Cl)Oc1ccc(-c2cc(=S)ss2)cc1,percent Bodipy-positive cells,[1],9.01 ± 2.4%
CC(=O)Oc1cc(C(C)C)c(OCCN(C)C)cc1C [Moxisylyte hydrochoride],percent Bodipy-positive cells,,36.4 ± 22%
CC(=O)Oc1cc(C(C)C)c(OCCN(C)C)cc1C [Moxisylyte hydrochloride],percent Bodipy-positive cells,[2],29.6 ± 6.4%
Br.NC(=O)C(c1ccccc1)(c1ccccc1)[C@@H]1CCN(CCc2ccc3c(c2)CCO3)C1 [Darifenacin HBr],percent Bodipy-positive cells,[2],94.013 ± 0.04%
O=C1c2c(O)cc(O)cc2O[C@H](c2ccc(O)c(O)c2)[C@H]1O,percent Bodipy-positive cells,[2],8.56 ± 4.9%
O=C1c2c(O)cc(O)cc2OC(c2ccc(O)c(O)c2)C1O (configuration not stated) [(?)-Taxifolin],percent Bodipy-positive cells,[2],9.62 ± 0.46%
O=C1c2c(O)cc(O)cc2OC(c2ccc(O)c(O)c2)C1O (configuration not stated) [Taxifolin (Dihydroquercetin)],percent Bodipy-positive cells,[3],9.75 ± 0.41%
same,percent Bodipy-positive cells,[2],11.8 ± 2.9%
CCCCC/C=C\C/C=C\C/C=C\CCCCC(=O)OC [.gamma.-Linolenic Acid methyl ester],percent Bodipy-positive cells,[1],16.4 ± 11%
COc1ccc(Nc2nccc(NCCO)n2)cc1 [Cardiogenol C hydrochloride],percent Bodipy-positive cells,[2],6.8 ± 0.96%
COc1ccc(Nc2nccc(NCCO)n2)cc1 [Cardiogenol C (hydrochloride)],percent Bodipy-positive cells,[1],14.7 ± 4.7%
CN(C)CCCOc1nn(Cc2ccccc2)c2ccccc12 [Benzydamine hydrochloride],percent Bodipy-positive cells,,71.9 ± 4.5%
same,percent Bodipy-positive cells,library stock concentration: 5.8 mM,72.8 ± 20%
CN(C)CCCOc1nn(Cc2ccccc2)c2ccccc12 [Benzydamine HCl],percent Bodipy-positive cells,[3],29.1 ± 0.47%
CN(C)CCCN1c2ccccc2Sc2ccccc21.Cl [Promazine hydrochloride],percent Bodipy-positive cells,[2],85.8 ± 1.4%
O=C1c2ccccc2C(=O)c2c(NCCc3ccc(O)cc3)ccc(NCCc3ccc(O)cc3)c21,percent Bodipy-positive cells,[2],54.6 ± 1.2%
CC(C)NCCN(C(C)C)S(=O)(=O)c1ccc(Cl)cc1Cl,percent Bodipy-positive cells,[2],47.8 ± 2.8%
FC(F)(F)c1ccc(/C=C/c2nc(COc3ccc(CCCCn4ccnn4)cc3)co2)cc1 [Mubritinib (TAK 165)],percent Bodipy-positive cells,[3],6.76 ± 0.37%
same,percent Bodipy-positive cells,[2],14.4 ± 3.2%
FC(F)(F)c1ccc(/C=C/c2nc(COc3ccc(CCCCn4ccnn4)cc3)co2)cc1,percent Bodipy-positive cells,[2],10.4 ± 3%
CCCCC[C@](C)(O)/C=C/[C@H]1[C@H](O)CC(=O)[C@@H]1C/C=C\CCCC(=O)O [15(S)-15-methyl Prostaglandin E2],percent Bodipy-positive cells,[1],13.4 ± 2.7%
CC(Oc1cc(-c2cnn(C3CCNCC3)c2)cnc1N)c1c(Cl)ccc(F)c1Cl [(S)-crizotinib],percent Bodipy-positive cells,[3],85.5 ± 5.6%
same,percent Bodipy-positive cells,[2],100%
CCCCC(=O)O[C@]1(C(=O)CO)[C@@H](C)C[C@H]2[C@@H]3CCC4=CC(=O)C=C[C@]4(C)[C@@]3(F)[C@@H](O)C[C@@]21C [Betamethasone valerate],percent Bodipy-positive cells,[2],15.1 ± 7.4%
Cc1nc(-c2ccccc2)c(-c2ccncc2)o1,percent Bodipy-positive cells,[3],17.9 ± 12%
CNCC[C@H](Oc1ccc(C(F)(F)F)cc1)c1ccccc1 [S-(+)-Fluoxetine hydrochloride],percent Bodipy-positive cells,[2],97.8 ± 3.2%
COc1cc(C(=O)N2CCOCC2)cc(OC)c1OC [Trimetozine],percent Bodipy-positive cells,library stock concentration: 7.1 mM,11.9 ± 7.4%
CC(=O)OCC(=O)[C@@]1(O)CC[C@H]2[C@@H]3CCC4=CC(=O)CC[C@]4(C)[C@H]3C(=O)C[C@@]21C,percent Bodipy-positive cells,[2],36.4 ± 5.8%
CC(=O)OCC(=O)[C@@]1(O)CC[C@H]2[C@@H]3CCC4=CC(=O)CC[C@]4(C)[C@H]3C(=O)C[C@@]21C [Cortisone acetate],percent Bodipy-positive cells,[3],10.4 ± 1.3%
same,percent Bodipy-positive cells,library stock concentration: 5 mM,2.94 ± 0.9%
same,percent Bodipy-positive cells,[2],6.93% and 11.2%
CC(=O)OCC(=O)[C@@]1(O)CC[C@H]2[C@@H]3CCC4=CC(=O)CC[C@]4(C)[C@H]3C(=O)C[C@@]21C [Cortisone 21-acetate],percent Bodipy-positive cells,[2],52.6 ± 1.1%
CC(=O)OCC(=O)[C@@]1(O)CC[C@H]2[C@@H]3CCC4=CC(=O)C=C[C@]4(C)[C@@]3(F)[C@@H](O)C[C@@]21C [Isoflupredone acetate],percent Bodipy-positive cells,,20.6 ± 0.65%
N=C(NO)NCC[C@H](N)C(=O)O,percent Bodipy-positive cells,[1],8.64 ± 2.1%
C#C[C@]1(O)CC[C@H]2[C@@H]3[C@H](C)CC4=C(CCC(=O)C4)[C@H]3CC[C@@]21C,percent Bodipy-positive cells,[2],13.1 ± 3.5%
C#C[C@]1(O)CC[C@H]2[C@@H]3[C@H](C)CC4=C(CCC(=O)C4)[C@H]3CC[C@@]21C [Tibolone],percent Bodipy-positive cells,[1],10.6 ± 4.2%
same,percent Bodipy-positive cells,library stock concentration: 6.4 mM,6.79 ± 2.6%
CC(C)(C)c1cc(C(=O)C(C#N)=NNc2cccc(Cl)c2)no1,percent Bodipy-positive cells,[3],40.2 ± 2.1%
same,percent Bodipy-positive cells,[2],35.4 ± 11%
Cn1cc(C(=O)OCC2CCN(CCNS(C)(=O)=O)CC2)c2ccccc21,percent Bodipy-positive cells,[2],33.7 ± 3.2%
O=C(O)COc1cccc(-c2ocnc2-c2nc(-c3ccccc3)c(-c3ccccc3)o2)c1,percent Bodipy-positive cells,[2],6.88 ± 0.82%
S=C=Nc1ccc(N=C=S)cc1,percent Bodipy-positive cells,[2],38.9 ± 10%
C=CC(=O)Nc1cc2c(Nc3ccc(F)c(Cl)c3)ncnc2cc1C#CC(C)(C)N1CCN(C)CC1,percent Bodipy-positive cells,library stock concentration: 400 uM,100%
C[C@@H](CN1CCC(n2c(=O)[nH]c3cc(Cl)ccc32)CC1)NC(=O)c1ccc2ccccc2c1,percent Bodipy-positive cells,[1],15.4 ± 0.69%
OC[C@@H](O)[C@@H](O)[C@H](O)[C@@H](O)CO [Sorbitol],percent Bodipy-positive cells,[3],8.56 ± 0.54%
same,percent Bodipy-positive cells,[2],16.5 ± 3.7%
OC[C@@H](O)[C@@H](O)[C@H](O)[C@@H](O)CO,percent Bodipy-positive cells,[2],33.4 ± 4.7%
CC1CCC(NC(=O)N(CCCl)N=O)CC1 (configuration not stated) [Semustine],percent Bodipy-positive cells,library stock concentration: 8.1 mM,8.5 ± 2.9%
same,percent Bodipy-positive cells,[2],34.3 ± 5.1%
CN[C@@H](C)C(=O)N[C@H](C(=O)N1CCC[C@H]1C(=O)Nc1snnc1-c1ccccc1)C1CCCCC1,percent Bodipy-positive cells,[3],20.7 ± 4.1%
same,percent Bodipy-positive cells,[2],80.2 ± 9.4%
Cc1nc(N=Nc2ccc(C(=O)O)cc2)c(COP(=O)(O)O)c(C=O)c1O,percent Bodipy-positive cells,[2],24.9 ± 1.1%
C[C@H]1C[C@H]2[C@@H]3CCC4=CC(=O)C=C[C@]4(C)[C@@]3(Cl)[C@@H](O)C[C@]2(C)[C@@]1(O)C(=O)CO [Beclomethasone],percent Bodipy-positive cells,[2],7.09% and 24.9%
Oc1ccc(O)cc1 [Hydroquinone],percent Bodipy-positive cells,[2],43% and 57.1%
same,percent Bodipy-positive cells,library stock concentration: 18.2 mM,9.86 ± 1%
CN1CCN(c2cccc(Nc3nc4c(-c5ccc(S(C)(=O)=O)cc5)cccn4n3)c2)CC1,percent Bodipy-positive cells,[3],9.91 ± 0.28%
same,percent Bodipy-positive cells,[2],90.7 ± 1.7%
COc1cc2nc(N3CCN(C(=O)C4CCCO4)CC3)nc(N)c2cc1OC (configuration not stated) [Terazosin hydrochloride],percent Bodipy-positive cells,,10.2 ± 1.3%
same,percent Bodipy-positive cells,[2],7.97 ± 2.1%
COc1cc2nc(N3CCN(C(=O)C4CCCO4)CC3)nc(N)c2cc1OC (configuration not stated) [Terazosin HCl],percent Bodipy-positive cells,[3],9.91 ± 5.1%
same,percent Bodipy-positive cells,library stock concentration: 5.2 mM,5.5 ± 1.3%
same,percent Bodipy-positive cells,[2],18.2 ± 9.2%
COc1cc2nc(N3CCN(C(=O)C4CCCO4)CC3)nc(N)c2cc1OC (configuration not stated) [Terazosin],percent Bodipy-positive cells,library stock concentration: 9.6 mM,11.2 ± 3.8%
same,percent Bodipy-positive cells,[2],47.2 ± 3.2%
CN(C)CCC1(c2ccc(Cl)cc2)Cc2ccccc2C(=O)O1 (configuration not stated),percent Bodipy-positive cells,[2],40.5 ± 1.1%
CC(C)(O)CC[C@@H](O)[C@](C)(O)[C@H]1CC[C@@]2(O)C3=CC(=O)[C@@H]4C[C@@H](O)[C@@H](O)C[C@]4(C)[C@H]3CC[C@]12C [20-Hydroxyecdysone],percent Bodipy-positive cells,[3],5.99 ± 2.1%
same,percent Bodipy-positive cells,[2],9 ± 4.1%

# Part of the list above, set out differently:
smiles | measurement | setting | value
FC(F)(F)c1ccc(/C=C/c2nc(COc3ccc(CCCCn4ccnn4)cc3)co2)cc1 [Mubritinib (TAK 165)] | percent Bodipy-positive cells | [2] | 14.4 ± 3.2%
FC(F)(F)c1ccc(/C=C/c2nc(COc3ccc(CCCCn4ccnn4)cc3)co2)cc1 | percent Bodipy-positive cells | [2] | 10.4 ± 3%
CCCCC[C@](C)(O)/C=C/[C@H]1[C@H](O)CC(=O)[C@@H]1C/C=C\CCCC(=O)O [15(S)-15-methyl Prostaglandin E2] | percent Bodipy-positive cells | [1] | 13.4 ± 2.7%
CC(Oc1cc(-c2cnn(C3CCNCC3)c2)cnc1N)c1c(Cl)ccc(F)c1Cl [(S)-crizotinib] | percent Bodipy-positive cells | [3] | 85.5 ± 5.6%
same | percent Bodipy-positive cells | [2] | 100%
CCCCC(=O)O[C@]1(C(=O)CO)[C@@H](C)C[C@H]2[C@@H]3CCC4=CC(=O)C=C[C@]4(C)[C@@]3(F)[C@@H](O)C[C@@]21C [Betamethasone valerate] | percent Bodipy-positive cells | [2] | 15.1 ± 7.4%
Cc1nc(-c2ccccc2)c(-c2ccncc2)o1 | percent Bodipy-positive cells | [3] | 17.9 ± 12%
CNCC[C@H](Oc1ccc(C(F)(F)F)cc1)c1ccccc1 [S-(+)-Fluoxetine hydrochloride] | percent Bodipy-positive cells | [2] | 97.8 ± 3.2%
COc1cc(C(=O)N2CCOCC2)cc(OC)c1OC [Trimetozine] | percent Bodipy-positive cells | library stock concentration: 7.1 mM | 11.9 ± 7.4%
CC(=O)OCC(=O)[C@@]1(O)CC[C@H]2[C@@H]3CCC4=CC(=O)CC[C@]4(C)[C@H]3C(=O)C[C@@]21C | percent Bodipy-positive cells | [2] | 36.4 ± 5.8%
CC(=O)OCC(=O)[C@@]1(O)CC[C@H]2[C@@H]3CCC4=CC(=O)CC[C@]4(C)[C@H]3C(=O)C[C@@]21C [Cortisone acetate] | percent Bodipy-positive cells | [3] | 10.4 ± 1.3%
same | percent Bodipy-positive cells | library stock concentration: 5 mM | 2.94 ± 0.9%
same | percent Bodipy-positive cells | [2] | 6.93% and 11.2%
CC(=O)OCC(=O)[C@@]1(O)CC[C@H]2[C@@H]3CCC4=CC(=O)CC[C@]4(C)[C@H]3C(=O)C[C@@]21C [Cortisone 21-acetate] | percent Bodipy-positive cells | [2] | 52.6 ± 1.1%
CC(=O)OCC(=O)[C@@]1(O)CC[C@H]2[C@@H]3CCC4=CC(=O)C=C[C@]4(C)[C@@]3(F)[C@@H](O)C[C@@]21C [Isoflupredone acetate] | percent Bodipy-positive cells |  | 20.6 ± 0.65%
